No constants are given. Whether binding was seen depends on the method and setting. In cells and extracts the contact can be indirect. For part of these data: A result given as binding can be weak or reduced; the word gives no strength. Tags and fused reporters may be left off the sequences shown.
Assays:
[1] = biological target: T1, GST fusion protein of the third intracellular loop (ICL3, 205-369 residues) of α2B-adrenergic receptor (UniProt P19328); assay: pull-down; GST fusion proteins tethered to glutathione resin incubated with total cell lysates of transfected HEK293 cells; 20 mM Tris-HCl pH 7.5, 1% NP-40, 140 mM NaCl, 1 mM MgCl2, 4 °C, 4-6 h; blot with anti-GFP or anti-myc; only the target purified
T1 sequence: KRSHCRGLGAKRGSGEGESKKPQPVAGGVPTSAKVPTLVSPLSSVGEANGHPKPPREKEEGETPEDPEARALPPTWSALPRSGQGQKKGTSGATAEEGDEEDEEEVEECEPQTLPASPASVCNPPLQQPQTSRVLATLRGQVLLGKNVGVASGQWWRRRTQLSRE

GFP-tagged GGA1 = biological target: T2, GFP-tagged GGA1 (UniProt Q9UJY5); assay: co-IP; HEK293 cells transfected with GFP-GGA1 or GFP-GGA1t; IP with anti-GFP antibodies; endogenous clathrin detected by blot with anti-clathrin antibodies
T2 sequence: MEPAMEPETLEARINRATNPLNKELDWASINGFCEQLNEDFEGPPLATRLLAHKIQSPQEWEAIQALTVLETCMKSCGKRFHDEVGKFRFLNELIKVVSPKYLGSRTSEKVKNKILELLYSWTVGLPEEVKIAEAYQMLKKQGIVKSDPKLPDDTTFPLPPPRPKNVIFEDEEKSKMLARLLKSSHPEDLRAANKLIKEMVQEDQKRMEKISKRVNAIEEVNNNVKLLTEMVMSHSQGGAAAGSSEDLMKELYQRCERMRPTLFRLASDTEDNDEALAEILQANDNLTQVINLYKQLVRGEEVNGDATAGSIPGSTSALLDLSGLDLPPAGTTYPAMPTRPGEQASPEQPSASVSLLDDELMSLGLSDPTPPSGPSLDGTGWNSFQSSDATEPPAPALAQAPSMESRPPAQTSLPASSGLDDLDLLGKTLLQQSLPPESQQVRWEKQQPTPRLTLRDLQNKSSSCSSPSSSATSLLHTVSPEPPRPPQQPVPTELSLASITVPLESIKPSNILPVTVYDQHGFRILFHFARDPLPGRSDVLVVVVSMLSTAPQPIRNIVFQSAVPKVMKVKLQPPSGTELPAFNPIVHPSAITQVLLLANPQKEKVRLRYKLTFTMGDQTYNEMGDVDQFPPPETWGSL

[2] = biological target: T3, GFP-tagged GGA1t (human (cDNA cloned from HEK293 cells)) (UniProt Q9UJY5); assay: as above
T3 sequence: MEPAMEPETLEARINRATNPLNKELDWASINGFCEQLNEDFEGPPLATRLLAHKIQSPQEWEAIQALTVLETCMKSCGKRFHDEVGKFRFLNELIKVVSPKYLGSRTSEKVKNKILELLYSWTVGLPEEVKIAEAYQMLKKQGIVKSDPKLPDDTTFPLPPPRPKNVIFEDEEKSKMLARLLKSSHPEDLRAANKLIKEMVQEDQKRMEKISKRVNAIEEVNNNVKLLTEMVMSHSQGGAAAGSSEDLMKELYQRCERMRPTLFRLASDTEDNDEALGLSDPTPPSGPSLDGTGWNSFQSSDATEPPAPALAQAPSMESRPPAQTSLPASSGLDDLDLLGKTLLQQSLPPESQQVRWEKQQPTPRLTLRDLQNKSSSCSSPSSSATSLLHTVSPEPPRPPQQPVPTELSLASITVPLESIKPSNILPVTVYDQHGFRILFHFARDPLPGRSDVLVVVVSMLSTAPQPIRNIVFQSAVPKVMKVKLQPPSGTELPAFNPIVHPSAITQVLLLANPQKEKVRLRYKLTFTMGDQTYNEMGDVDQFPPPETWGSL

Substance: GFP-tagged GGA1t hinge domain (domain or fragment)
- binding [1]: no binding

Substance: clathrin (endogenous) (human (endogenous in HEK293))
- binding (GFP-tagged GGA1): binds
- binding [2]: no binding

— article PMC6637153
